Source: publication PMC6255703
For some assays here: Negatives hold for the conditions tested. At least one verdict rests on a figure or table, not on a statement of the authors. For some assays here: Tags and fusion partners may be left off the protein sequences shown. For some assays here: The exact form of at least one protein or probe is not confirmed.

Key:
[1] = target: T1, GST-tSlARF10 (GST-SlARF10 B3 domain) (Solanum lycopersicum) (UniProt E2FHH6); experiment: competition with a labelled probe; conditions: mutated probe did not abolish shift; LightShift Chemiluminescent EMSA Kit, 6% native polyacrylamide gel; pH and temperature not stated; recombinant protein; residues 1-366; protein details: GST (pGEX-4T-1)
T1 sequence (looked up): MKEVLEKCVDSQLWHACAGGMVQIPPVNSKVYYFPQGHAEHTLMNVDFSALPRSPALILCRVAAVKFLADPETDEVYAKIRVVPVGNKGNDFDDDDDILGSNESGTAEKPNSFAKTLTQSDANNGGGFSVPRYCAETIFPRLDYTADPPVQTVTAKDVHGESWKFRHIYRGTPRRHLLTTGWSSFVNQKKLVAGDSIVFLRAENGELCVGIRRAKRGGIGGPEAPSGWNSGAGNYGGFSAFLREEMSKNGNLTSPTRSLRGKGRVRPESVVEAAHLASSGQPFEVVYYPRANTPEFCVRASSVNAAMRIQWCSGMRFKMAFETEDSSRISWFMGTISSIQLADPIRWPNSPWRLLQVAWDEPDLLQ

[2] = target: T1, GST-tSlARF10 (GST-SlARF10 B3 domain) (Solanum lycopersicum); experiment: EMSA; conditions: abolished dose-dependently by unlabeled same-sequence competitor; LightShift Chemiluminescent EMSA Kit, 6% native polyacrylamide gel; pH and temperature not stated; recombinant protein; residues 1-366; protein details: GST (pGEX-4T-1); label: 3' biotin (unlabeled as competitor)
GST = experiment: EMSA; conditions: GST only, text does not say which of the two SlGLK1 probes; LightShift Chemiluminescent EMSA Kit, 6% native polyacrylamide gel; pH and temperature not stated; recombinant protein; label: 3' biotin (unlabeled as competitor)

| Sequence | binding result [1] | binding result [2] | binding result (GST) |
| --- | --- | --- | --- |
| CCACTTCCAACATAACCCTACCAAAAAAAATTTCAACTTGCAAGCCTTTC (double strand) [SlGLK1 mutant probe 2 (F2/R2)] | no binding | – | – |
| AGTTTTTAAAAAAATTATTAGTGAGACATAAATAAATTTTACCGTCAAAA (double strand) [SlGLK1 promoter probe 1 (F1/R1)] | – | binds | – |
| CCACTTCCAACATAACCCTACCATGTCTCATTTCAACTTGCAAGCCTTTC (double strand) [SlGLK1 promoter probe 2 (F2/R2)] | – | binds | no binding |
| AGTTTTTAAAAAAATTATTAGTAAAAAATAAATAAATTTTACCGTCAAAA (double strand) [SlGLK1 mutant probe 1 (F1/R1)] | no binding | – | – |
